# Test results: article PMC6514986
# Construct, isoform or probe ends are uncertain for at least one entry. For part of these data: No signal at the amounts used counts as a negative.
# Experiments:
# [1] = test system: GST-HpWRKY3-C (Hylocereus (pitaya)); test: competition with a labelled probe; conditions: EMSA: binding buffer (composition and pH not stated), 25 min at 30 C, 6% native PAGE, LightShift chemiluminescent kit, recombinant protein, protein details: GST (N-terminal, pGEX), label: none (competitor)
# [2] = test system: GST-HpWRKY3-C (Hylocereus (pitaya)); test: EMSA; conditions: EMSA: binding buffer (composition and pH not stated), 25 min at 30 C, 6% native PAGE, LightShift chemiluminescent kit; recombinant protein; protein details: GST (N-terminal, pGEX); label: 5' biotin
sequence,measurement,setting,value
ACAAAAAAAAACCCTAAAATTTTAATTGGGGGCAATTTGGTCATTTG (double strand) [HpINV2 promoter W-box mutant probe],binding result,[1]; excess over biotin-labeled HpINV2 probe,no binding
GCACTGTGTTTATGATAATTGACCCGTTATTGACTGCCAAAAATTTGAATTTT (double strand) [HpSuSy1 promoter unlabeled probe],binding result,"[1]; excess over biotin-labeled HpSuSy1 probe, dose-dependent",binds
GCACTGTGTTTATGATAATTGACCCGTTATTGACTGCCAAAAATTTGAATTTT (double strand) [HpSuSy1 promoter W-box probe],binding result,[2],binds
GCACTGTGTTTATGATAAAAAAAACGTTAAAAAAAGCCAAAAATTTGAATTTT (double strand) [HpSuSy1 promoter W-box mutant probe],binding result,[1]; excess over biotin-labeled HpSuSy1 probe,no binding
ACAAGGTCAAACCCTAAAATTTTAATTGGGGGCAATTTGGTCATTTG (double strand) [HpINV2 promoter W-box probe],binding result,[2],binds
ACAAGGTCAAACCCTAAAATTTTAATTGGGGGCAATTTGGTCATTTG (double strand) [HpINV2 promoter unlabeled probe],binding result,"[1]; excess over biotin-labeled HpINV2 probe, dose-dependent",binds
